Results from US20240342190A1, “METHODS FOR REDUCING ISCHEMIA-REPERFUSION INJURIES” (BioMimetix JV, LLC, priority 2023, published 2024).

System: young male Wistar rats subjected to 90 min of MCAO (ischemic stroke)
Assay: Experiment 3: duration of BMX-001 treatment and long-term stroke outcome in young male rats
Format: in vivo, rat
Description: The rats were fasted overnight for glucose control. On the surgery day, they were anesthetized with 5% isoflurane in 30% oxygen balanced with nitrogen. The trachea was orally intubated, and both lungs were mechanically ventilated to maintain normocapnia. Isoflurane was reduced to 1.5% during the surgical procedure. A 22-gauge needle thermistor was percutaneously inserted beneath the temporalis muscle adjacent to the skull. The pericranial temperature was maintained at 37.0° C.±0.2° C. by a surface heat lamp. The tail artery was cannulated with PE 50 tubing (BD Intramedic™ Polyethylene Tubing, Sparks, MD, USA), and arterial blood pressure was continuously monitored. 50 IU of heparin was given via arterial line to prevent intra-arterial thrombosis. Arterial blood samples were collected pre, during, and after ischemia for blood gas, glucose, and hematocrit measurements.
Ischemic stroke was induced by transiently occluding the middle cerebral artery (MCAO) as previously reported.^23,24 Briefly, a midline cervical incision was made and the right common carotid artery […] was identified. The external and internal carotid arteries were dissected. […] The internal carotid artery (ICA) was dissected distally until the origin of the pterygopalatine artery was visualized. After surgical preparation, a 10 min interval was allowed for physiologic stabilization. […] The common carotid artery was re-opened, and a timer was started as the onset of cerebral ischemia.
After 90 min of MCAO, the filament was removed and a PE-10 tube (BD Intramedic™ Polyethylene Tubing, Sparks, MD, USA) was inserted into the ICA beyond the origin of the pterygopalatine artery. The vehicle or BMX-001 (30-50 μg/kg) solution (1 μl/g for both solutions, 250 μl for the 250 g rat) was slowly infused for 5 minutes via syringe pump. At the completion of intra-carotid infusion, the PE tube was removed and the ECA stump was permanently ligated. The tail artery catheter was removed and both the neck incision and tail incision were infiltrated with bupivacaine and closed with suture. Isoflurane was discontinued. Rats were disconnected from the ventilator when they attained spontaneous respiration and kept in a recovery cage. The tracheas were extubated after recovery of the righting reflex. They were in an O2 enriched environment (30% O2) for 1 h and then returned to the home cage.
Post-stroke neurologic deficits were assessed at day 7 and 28 using a standardized neurological scoring system.^27,28 General status, simple motor deficit, complex motor deficit, and sensory deficit were evaluated, including the ability of walking on a beam and climbing on the vertical screen. The total score each animal received was the sum of all four individual scores (0-48, 0=normal and 48=the worst score).
Upon the completion of functional tests, the animals were weighed, anesthetized with isoflurane, and decapitated. The brains were harvested, frozen at −20° C. in 2-methylbutane on dry ice, and stored in a −80° C. freezer. Serial quadruplicate 20-μm-thick coronal sections were cut using a Leica cryostat and mounted on the slides at 720-μm interval over the rostral-caudal extent of the brain. The sections were dried on a slide heater at 36° C., and stained with hematoxylin and eosin. A section from each […] interval was digitized with a video camera controlled by an image analyzer (MCID, the MicroComputer Imaging Device, Imaging Research Inc, St. Catharines, Ontario, Canada). […] With the observer blinded to the experimental condition, the following regions of interest (ROI) were outlined individually using an operator-controlled cursor, including non-infarcted ipsilateral cerebral cortex, non-infarcted ipsilateral subcortex, contralateral cerebral cortex, and contralateral subcortex. The area in each ROI (mm^2) was determined by automated counting of calibrated pixels and the volume (mm^3) was computed by the known interval between sections over the rostral-caudal extent of brain. […]

[1] = 10 minutes before stroke, group BMX-001 for 7 days
[2] = 10 minutes before stroke, group BMX-001 for 28 days
[3] = 45 minutes after stroke onset, group BMX-001 for 7 days
[4] = 45 minutes after stroke onset, group BMX-001 for 28 days

With `CCCCOCC[n+]1ccccc1C1=C2C=CC3=[N+]2[Mn]24[n]5c1ccc5C(c1cccc[n+]1CCOCCCC)=C1C=CC(=[N+]12)C(c1cccc[n+]1CCOCCCC)=c1ccc([n]14)=C3c1cccc[n+]1CCOCCCC` [BMX-001, MnTnBuOE-2-PyP^5+] the Glucose [1] was 104 ± 19, the Hct [1] was 42.6 ± 1.4 and the PCO2 [1] was 36 ± 3. It also gave a PO2 [1] of 168 ± 18, a pH [1] of 7.481 ± 0.033 and an MAP (10 minutes before stroke, group BMX-001 for 7 days (n = 19), mean ± SD) of 75 ± 9 mmHg. For the same compound, the Glucose [2] was 110 ± 17, the Hct [2] was 42.2 ± 1.3 and the PCO2 [2] was 35 ± 4. The PO2 [2] was 172 ± 13, the pH [2] was 7.487 ± 0.039 and the MAP (10 minutes before stroke, group BMX-001 for 28 days (n = 19), mean ± SD) was 75 ± 7 mmHg. For the same compound, the MAP [3] was 69 ± 7 mmHg, the PCO2 [3] was 37 ± 6 and the PO2 [3] was 162 ± 17. It also gave a pH [3] of 7.462 ± 0.048, an MAP [4] of 69 ± 7 mmHg and a PCO2 [4] of 39 ± 6. For the same compound, the PO2 [4] was 162 ± 17 and the pH [4] was 7.433 ± 0.049.
